Assay results reported in the supplement of paper PMC10849652.
The list shows a part of the results.

Amino acid sequences for entries named in this document (tags omitted). A change or cut given only in a name is not applied to a line headed by its entry.
UniProt P52594: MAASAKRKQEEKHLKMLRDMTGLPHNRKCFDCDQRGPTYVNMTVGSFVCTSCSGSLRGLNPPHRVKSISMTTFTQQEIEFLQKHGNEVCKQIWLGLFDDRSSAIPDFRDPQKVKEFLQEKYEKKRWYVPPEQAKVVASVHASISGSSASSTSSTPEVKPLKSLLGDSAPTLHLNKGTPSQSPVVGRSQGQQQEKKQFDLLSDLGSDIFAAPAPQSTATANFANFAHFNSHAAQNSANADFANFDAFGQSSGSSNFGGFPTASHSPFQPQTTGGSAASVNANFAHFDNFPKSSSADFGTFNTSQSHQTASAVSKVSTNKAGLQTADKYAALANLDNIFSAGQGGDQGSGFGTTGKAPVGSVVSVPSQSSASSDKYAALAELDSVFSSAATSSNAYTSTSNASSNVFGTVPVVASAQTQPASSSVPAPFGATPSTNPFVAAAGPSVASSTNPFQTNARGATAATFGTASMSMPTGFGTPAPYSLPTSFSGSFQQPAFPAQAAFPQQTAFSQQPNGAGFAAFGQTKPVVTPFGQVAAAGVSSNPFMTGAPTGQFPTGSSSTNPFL
UniProt Q3KRA9: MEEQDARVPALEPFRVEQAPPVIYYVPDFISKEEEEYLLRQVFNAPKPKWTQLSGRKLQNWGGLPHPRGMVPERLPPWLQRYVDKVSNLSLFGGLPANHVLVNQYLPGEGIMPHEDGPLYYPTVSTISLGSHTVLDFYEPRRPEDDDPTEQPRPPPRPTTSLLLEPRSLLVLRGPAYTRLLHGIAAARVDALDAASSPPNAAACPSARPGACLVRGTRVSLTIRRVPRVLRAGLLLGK
UniProt Q96HN2, whole entry, looked up: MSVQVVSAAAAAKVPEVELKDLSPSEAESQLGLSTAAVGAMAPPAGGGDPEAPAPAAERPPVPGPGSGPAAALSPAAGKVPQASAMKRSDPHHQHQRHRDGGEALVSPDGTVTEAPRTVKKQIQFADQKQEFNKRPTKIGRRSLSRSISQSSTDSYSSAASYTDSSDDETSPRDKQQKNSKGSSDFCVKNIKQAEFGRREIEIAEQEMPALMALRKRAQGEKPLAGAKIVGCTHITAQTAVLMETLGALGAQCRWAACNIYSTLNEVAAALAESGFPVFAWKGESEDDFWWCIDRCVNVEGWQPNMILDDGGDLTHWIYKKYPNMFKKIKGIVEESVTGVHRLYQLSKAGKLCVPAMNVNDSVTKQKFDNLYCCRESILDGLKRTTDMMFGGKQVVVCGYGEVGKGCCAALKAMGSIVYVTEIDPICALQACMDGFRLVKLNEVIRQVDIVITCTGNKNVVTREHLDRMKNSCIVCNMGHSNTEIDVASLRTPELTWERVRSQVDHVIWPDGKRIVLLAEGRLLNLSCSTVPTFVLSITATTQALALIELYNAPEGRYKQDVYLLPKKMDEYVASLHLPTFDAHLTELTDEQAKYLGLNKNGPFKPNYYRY
UniProt Q53H12: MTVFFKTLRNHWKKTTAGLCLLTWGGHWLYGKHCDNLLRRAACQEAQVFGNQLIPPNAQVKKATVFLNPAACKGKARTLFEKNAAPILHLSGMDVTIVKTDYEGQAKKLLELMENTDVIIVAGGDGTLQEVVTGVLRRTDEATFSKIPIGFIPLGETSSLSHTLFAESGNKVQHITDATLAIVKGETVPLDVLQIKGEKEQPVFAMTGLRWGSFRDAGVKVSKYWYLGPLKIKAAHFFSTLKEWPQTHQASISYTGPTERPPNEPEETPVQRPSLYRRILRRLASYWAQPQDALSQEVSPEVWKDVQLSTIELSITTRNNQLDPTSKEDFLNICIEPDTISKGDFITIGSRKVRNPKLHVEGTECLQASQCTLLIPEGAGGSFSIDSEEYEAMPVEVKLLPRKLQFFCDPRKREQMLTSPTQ
UniProt P09972: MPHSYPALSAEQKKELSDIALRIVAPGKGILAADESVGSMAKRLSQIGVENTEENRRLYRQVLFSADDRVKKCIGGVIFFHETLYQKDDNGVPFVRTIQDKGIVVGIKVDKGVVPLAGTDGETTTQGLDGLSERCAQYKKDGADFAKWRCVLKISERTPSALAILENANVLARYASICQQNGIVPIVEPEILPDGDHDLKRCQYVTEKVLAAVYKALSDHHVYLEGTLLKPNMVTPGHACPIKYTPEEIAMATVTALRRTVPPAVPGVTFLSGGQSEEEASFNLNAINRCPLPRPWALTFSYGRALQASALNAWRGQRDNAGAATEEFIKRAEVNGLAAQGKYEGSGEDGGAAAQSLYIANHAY
UniProt P02771: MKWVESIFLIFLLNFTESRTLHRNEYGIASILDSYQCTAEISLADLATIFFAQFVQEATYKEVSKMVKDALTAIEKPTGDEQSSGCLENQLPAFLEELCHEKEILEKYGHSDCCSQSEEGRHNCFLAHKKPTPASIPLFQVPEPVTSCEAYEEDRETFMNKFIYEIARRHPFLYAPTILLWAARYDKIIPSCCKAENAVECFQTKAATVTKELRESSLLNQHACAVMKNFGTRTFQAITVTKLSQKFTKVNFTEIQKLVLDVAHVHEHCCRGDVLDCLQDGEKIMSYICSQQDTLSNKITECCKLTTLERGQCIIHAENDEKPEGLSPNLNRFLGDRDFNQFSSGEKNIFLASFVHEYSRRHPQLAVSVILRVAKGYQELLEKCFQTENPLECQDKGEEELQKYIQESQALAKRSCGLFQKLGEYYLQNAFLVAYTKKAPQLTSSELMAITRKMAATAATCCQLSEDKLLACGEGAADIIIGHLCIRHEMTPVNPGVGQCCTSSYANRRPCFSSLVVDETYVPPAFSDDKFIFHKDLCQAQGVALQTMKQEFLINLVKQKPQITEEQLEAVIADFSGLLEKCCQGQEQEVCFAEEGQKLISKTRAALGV
UniProt Q8N142: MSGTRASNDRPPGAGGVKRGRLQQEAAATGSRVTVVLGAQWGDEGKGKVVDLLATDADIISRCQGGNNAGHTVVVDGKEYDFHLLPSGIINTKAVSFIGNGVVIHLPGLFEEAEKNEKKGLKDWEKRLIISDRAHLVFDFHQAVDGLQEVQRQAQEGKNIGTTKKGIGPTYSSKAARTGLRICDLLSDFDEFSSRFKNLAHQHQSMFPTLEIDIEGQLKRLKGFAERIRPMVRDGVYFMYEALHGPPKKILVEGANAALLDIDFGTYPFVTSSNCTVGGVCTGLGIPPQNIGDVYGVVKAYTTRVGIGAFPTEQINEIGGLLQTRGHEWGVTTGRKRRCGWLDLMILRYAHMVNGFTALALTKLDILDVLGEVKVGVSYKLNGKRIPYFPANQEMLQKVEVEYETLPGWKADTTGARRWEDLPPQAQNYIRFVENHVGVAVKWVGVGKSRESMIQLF
UniProt Q01432: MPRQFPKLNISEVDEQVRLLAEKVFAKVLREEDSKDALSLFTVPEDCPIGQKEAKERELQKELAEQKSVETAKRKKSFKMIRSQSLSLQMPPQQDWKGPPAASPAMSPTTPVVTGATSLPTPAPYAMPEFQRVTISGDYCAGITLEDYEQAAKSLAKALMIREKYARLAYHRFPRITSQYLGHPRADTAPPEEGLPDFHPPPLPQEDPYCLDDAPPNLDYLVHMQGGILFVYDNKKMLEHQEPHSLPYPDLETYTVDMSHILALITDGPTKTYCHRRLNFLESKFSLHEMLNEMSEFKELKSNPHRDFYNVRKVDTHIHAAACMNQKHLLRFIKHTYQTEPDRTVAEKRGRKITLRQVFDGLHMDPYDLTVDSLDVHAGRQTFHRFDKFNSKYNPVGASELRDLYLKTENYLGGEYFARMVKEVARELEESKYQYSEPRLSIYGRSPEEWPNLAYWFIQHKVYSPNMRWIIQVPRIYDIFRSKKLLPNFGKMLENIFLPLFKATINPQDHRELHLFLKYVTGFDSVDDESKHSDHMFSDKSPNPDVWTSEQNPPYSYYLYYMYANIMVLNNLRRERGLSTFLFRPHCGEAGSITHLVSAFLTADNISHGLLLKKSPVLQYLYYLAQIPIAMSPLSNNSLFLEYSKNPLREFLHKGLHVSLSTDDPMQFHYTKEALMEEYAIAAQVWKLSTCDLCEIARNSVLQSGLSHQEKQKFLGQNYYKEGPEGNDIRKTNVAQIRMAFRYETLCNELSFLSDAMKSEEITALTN
UniProt Q9Y303: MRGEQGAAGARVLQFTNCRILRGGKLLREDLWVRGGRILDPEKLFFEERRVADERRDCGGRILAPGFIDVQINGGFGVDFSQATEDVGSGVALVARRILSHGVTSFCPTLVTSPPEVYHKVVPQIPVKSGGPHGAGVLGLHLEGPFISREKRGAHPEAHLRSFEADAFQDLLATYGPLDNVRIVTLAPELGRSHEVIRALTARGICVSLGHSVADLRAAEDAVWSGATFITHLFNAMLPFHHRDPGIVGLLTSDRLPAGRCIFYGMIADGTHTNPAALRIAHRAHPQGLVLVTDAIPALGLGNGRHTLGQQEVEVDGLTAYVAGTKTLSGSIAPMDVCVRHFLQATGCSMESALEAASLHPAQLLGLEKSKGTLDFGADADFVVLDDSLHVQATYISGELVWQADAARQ
UniProt Q8IZ83: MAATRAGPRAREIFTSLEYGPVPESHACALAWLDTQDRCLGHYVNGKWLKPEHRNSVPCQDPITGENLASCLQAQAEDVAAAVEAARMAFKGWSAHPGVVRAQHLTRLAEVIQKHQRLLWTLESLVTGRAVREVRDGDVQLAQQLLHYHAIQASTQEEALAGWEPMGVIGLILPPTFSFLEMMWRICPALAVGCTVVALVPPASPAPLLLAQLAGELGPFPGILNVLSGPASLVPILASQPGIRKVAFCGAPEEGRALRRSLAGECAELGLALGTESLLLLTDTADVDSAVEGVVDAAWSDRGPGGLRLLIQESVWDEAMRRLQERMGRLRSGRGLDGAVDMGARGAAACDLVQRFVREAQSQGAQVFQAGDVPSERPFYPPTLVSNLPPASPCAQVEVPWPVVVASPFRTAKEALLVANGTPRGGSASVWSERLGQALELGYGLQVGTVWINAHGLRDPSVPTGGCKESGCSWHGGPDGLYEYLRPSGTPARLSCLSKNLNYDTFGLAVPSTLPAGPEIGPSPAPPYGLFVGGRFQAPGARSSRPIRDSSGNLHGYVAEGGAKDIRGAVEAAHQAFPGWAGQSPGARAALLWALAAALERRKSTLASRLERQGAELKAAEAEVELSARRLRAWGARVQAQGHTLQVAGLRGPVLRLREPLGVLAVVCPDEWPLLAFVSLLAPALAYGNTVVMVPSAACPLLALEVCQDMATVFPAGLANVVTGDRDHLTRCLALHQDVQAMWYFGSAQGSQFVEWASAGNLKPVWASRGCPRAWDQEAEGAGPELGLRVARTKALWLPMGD
UniProt Q9NP73: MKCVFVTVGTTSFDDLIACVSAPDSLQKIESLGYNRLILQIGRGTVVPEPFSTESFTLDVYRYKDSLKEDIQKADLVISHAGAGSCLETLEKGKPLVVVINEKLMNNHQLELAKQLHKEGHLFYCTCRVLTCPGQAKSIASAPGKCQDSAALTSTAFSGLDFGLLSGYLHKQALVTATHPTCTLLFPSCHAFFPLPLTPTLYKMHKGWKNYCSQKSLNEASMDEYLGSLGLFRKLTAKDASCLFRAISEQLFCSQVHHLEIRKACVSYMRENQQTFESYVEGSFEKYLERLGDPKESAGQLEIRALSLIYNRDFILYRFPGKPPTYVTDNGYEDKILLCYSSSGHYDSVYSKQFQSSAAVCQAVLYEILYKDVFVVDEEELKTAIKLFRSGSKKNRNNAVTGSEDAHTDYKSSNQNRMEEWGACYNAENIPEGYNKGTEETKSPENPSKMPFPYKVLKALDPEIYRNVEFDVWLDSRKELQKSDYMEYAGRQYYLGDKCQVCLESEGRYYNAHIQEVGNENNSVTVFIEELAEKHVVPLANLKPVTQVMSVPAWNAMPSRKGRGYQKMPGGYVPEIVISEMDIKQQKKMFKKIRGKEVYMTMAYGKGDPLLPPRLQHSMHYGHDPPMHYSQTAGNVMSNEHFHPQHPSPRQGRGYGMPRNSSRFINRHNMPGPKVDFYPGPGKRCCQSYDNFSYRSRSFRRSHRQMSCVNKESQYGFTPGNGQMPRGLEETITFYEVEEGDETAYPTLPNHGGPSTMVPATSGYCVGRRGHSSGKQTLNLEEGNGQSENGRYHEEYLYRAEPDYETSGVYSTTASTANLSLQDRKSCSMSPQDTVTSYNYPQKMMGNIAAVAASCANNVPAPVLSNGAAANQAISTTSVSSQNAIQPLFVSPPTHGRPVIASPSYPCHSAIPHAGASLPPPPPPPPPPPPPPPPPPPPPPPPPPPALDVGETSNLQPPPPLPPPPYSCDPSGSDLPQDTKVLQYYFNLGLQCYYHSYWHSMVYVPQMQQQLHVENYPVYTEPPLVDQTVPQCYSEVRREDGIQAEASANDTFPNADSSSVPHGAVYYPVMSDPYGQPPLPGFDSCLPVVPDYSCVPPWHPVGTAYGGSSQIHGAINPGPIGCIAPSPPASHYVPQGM

Legend:
Experiment in all cases: log2 fold change, soluble protein after heating vs DMSO (PISA); higher = thermal stabilisation; K562 cells, 10 uM, 30 min; active = over 0.2 and 3.5 SD of the protein, either way, in both replicates (recomputed)
[1] = compound: CC1=C(C=C(C=C1)NC(=O)C2=CC(=CC=C2)C(C)(C)C#N)NC3=CC4=C(C=C3)N=CN(C4=O)C
How it was run: (§1)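 K562 cells at 2×10^6 cells/mL were treated with 10 μM compound for 30 min. Aliquots were heated for 3 min across 48°C-58°C, pooled, and extracted in PBS with 0.5% NP-40 at 4°C; soluble protein was the supernatant after 21,000xg for 90 min. Soluble protein was quantified by TMTpro 16plex LC-MS/MS with channel sums equalised, and reported as log2 fold change in thermal stability against DMSO controls, with values from duplicates.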

[2] = compound: CC1=C(C=C(C=C1)NC(=O)C2=CC(=CC=C2)N(C)C)NC(=O)C3=CC=C(C=C3)O
How it was run: as §1

[3] = compound: CC1=CC=C(C=C1)SC2=C3C=C(SC3=CN=C2)C(=O)N
How it was run: as §1

[4] = compound: CC1=NC(=CC=C1)C2=C(N=C(N2)C(C)(C)C)C3=CC4=NC=CN=C4C=C3
How it was run: as §1

[5] = compound: CCCCN(Cc1ccc(C(=O)NO)cc1)C(=O)Nc1ccccc1 [Nexturastat A]
How it was run: as §1

[6] = compound: CCCS(=O)(=O)Nc1ccc(F)c(C(=O)c2c[nH]c3ncc(-c4ccc(Cl)cc4)cc23)c1F [vemurafenib]
How it was run: as §1

[7] = compound: CCCS(=O)(=O)Nc1ccc(F)c(C(=O)c2c[nH]c3ncc(Cl)cc23)c1F
How it was run: as §1

[8] = compound: CCCc1cc(C)[nH]c(=O)c1CNC(=O)c1cc(-c2ccnc(N3CCN(C)CC3)c2)cc2c1cnn2C(C)C
How it was run: as §1

[9] = compound: CCN(CC)Cc1ccc2cc(COC(=O)Nc3ccc(C(=O)NO)cc3)ccc2c1 [givinostat]
How it was run: as §1

[10] = compound: CCN(CCCOc1ccc2c(Nc3cc(CC(=O)Nc4cccc(F)c4)[nH]n3)ncnc2c1)CCOP(=O)(O)O [barasertib]
How it was run: as §1

[11] = compound: CC[C@@H]1C(=O)N(C)c2cnc(Nc3ccc(C(=O)NC4CCN(C)CC4)cc3OC)nc2N1C1CCCC1
How it was run: as §1

[12] = compound: CC[C@@H]1C(=O)N(C)c2cnc(Nc3ccc(C(=O)N[C@H]4CC[C@H](N5CCN(CC6CC6)CC5)CC4)cc3OC)nc2N1C(C)C [volasertib]
How it was run: as §1

[13] = compound: CC[C@H](C)N1C=C(C2=C(C=C(C=C21)C3=CN=C(C=C3)N4CCNCC4)C(=O)NCC5=C(C=C(NC5=O)C)C)C
How it was run: as §1

[14] = compound: CC[C@H](C)[C@@H](C(=O)N[C@@H]([C@@H](C)O)C(=O)N[C@@H](CC(C)C)C(=O)[C@]1(CO1)C)NC(=O)[C@H]([C@@H](C)CC)N(C)C(=O)C [epoxomicin]
How it was run: as §1

[15] = compound: CCn1c(C(=O)N(C2CC2)C2CC2)cc2c3c(ncn3C)c(Nc3cc(C)n(C)n3)nc21
How it was run: as §1

[16] = compound: CCn1cc(-c2ccnc3[nH]c(-c4cccc(CN(C)C)c4)cc23)c(-c2ccc(NC(=O)N(C)C)cc2)n1
How it was run: as §1

[17] = compound: CN(C)CC(=O)Nc1ccc2[nH]c(=O)c3ccccc3c2c1
How it was run: as §1

[18] = compound: CN(CCOC1=CC=C(C=C1)C[C@H]2C(=O)NC(=O)S2)C3=CC=CC=N3 (racemic) [rosiglitazone]
How it was run: as §1

[19] = compound: CN1C2=C(C3=C1C(=O)N(N=C3)CC4=CC(=CC=C4)N)SC(=C2)S(=O)C
How it was run: as §1

[20] = compound: CN1CCC(CNc2ccc3ncc(-c4cccc(OC(F)(F)F)c4)n3n2)CC1
How it was run: as §1

Measured: log2 fold change

AK3 (UniProt Q9UIJ7)
inactive: [1] 0 | [2] 0 | [3] 0.013 | [4] 0.005 | [5] -0.114 | [6] -0.021 | [7] -0.001 | [8] -0.026 | [9] 0.001 | [10] 0.022 | [11] 0.028 | [12] 0.052 | [13] -0.038 | [14] -0.012 | [15] 0 | [16] -0.003 | [17] 0.012 | [18] 0.008 | [19] -0.038 | [20] -0.014

AGFG1 isoform 4 (UniProt P52594)
inactive: [1] 0.019 | [2] -0.031 | [3] 0 | [4] 0.178 | [5] -0.158 | [6] 0.025 | [7] 0.042 | [8] 0.043 | [9] 0.028 | [10] 0.001 | [11] -0.043 | [12] -0.209 | [13] 0.061 | [14] 0.05 | [15] 0.001 | [16] -0.026 | [17] 0.002 | [18] -0.002 | [19] -0.022 | [20] 0.158

ALKBH6 isoform 2 (UniProt Q3KRA9)
inactive: [1] -0.015 | [2] 0.044 | [3] -0.046 | [4] -0.008 | [5] 0.073 | [6] -0.098 | [7] 0.043 | [8] 0.001 | [9] -0.02 | [10] 0.014 | [11] 0.019 | [12] -0.082 | [13] 0.056 | [14] 0.013 | [15] 0.009 | [16] -0.106 | [17] -0.061 | [18] 0.028 | [19] -0.081 | [20] -0.065

AHCYL2 (UniProt Q96HN2)
inactive: [1] -0.038 | [2] -0.017 | [3] 0.047 | [4] -0.02 | [5] -0.025 | [6] -0.048 | [7] -0.014 | [8] -0.018 | [9] -0.024 | [10] 0.007 | [11] -0.021 | [12] 0.042 | [13] -0.028 | [14] 0.034 | [15] 0.004 | [16] 0.013 | [17] -0.02 | [18] 0.017 | [19] -0.069 | [20] -0.044

AGK (UniProt Q53H12)
inactive: [1] -0.02 | [2] 0.003 | [3] 0.039 | [4] 0.066 | [5] -0.056 | [6] -0.003 | [7] 0.032 | [8] -0.016 | [9] 0.026 | [10] 0.021 | [11] -0.075 | [12] -0.041 | [13] 0.008 | [14] 0.027 | [15] 0.007 | [16] 0.012 | [17] 0.007 | [18] -0.036 | [19] -0.012 | [20] -0.096

ALDOC (UniProt P09972)
inactive: [1] 0.03 | [2] -0.021 | [3] 0.032 | [4] 0.007 | [5] 0.009 | [6] 0.02 | [7] 0.015 | [8] -0.109 | [9] -0.004 | [10] -0.023 | [11] -0.017 | [12] 0.063 | [13] -0.058 | [14] 0.013 | [15] 0.001 | [16] -0.007 | [17] 0 | [18] -0.005 | [19] -0.068 | [20] -0.056

AFG3L2 (UniProt Q9Y4W6)
inactive: [1] -0.018 | [2] -0.002 | [3] 0.011 | [4] 0.05 | [5] -0.059 | [6] 0.007 | [7] 0.007 | [8] -0.015 | [9] -0.065 | [10] 0.021 | [11] -0.053 | [12] -0.055 | [13] 0.018 | [14] 0.019 | [15] 0.016 | [16] 0.001 | [17] -0.004 | [18] 0.024 | [19] -0.023 | [20] -0.157

AFP (UniProt P02771)
inactive: [1] -0.095 | [2] 0.702 | [3] 0.624 | [4] 0.087 | [5] -0.089 | [6] 0.135 | [7] -0.186 | [8] -0.262 | [9] -0.187 | [10] -0.142 | [11] -0.021 | [12] 0.157 | [13] 0.057 | [14] -0.508 | [15] -0.102 | [16] 0.07 | [17] -0.052 | [18] -0.14 | [19] 0.346 | [20] 0.079

ADSS1 (UniProt Q8N142)
inactive: [1] -0.006 | [2] 0.014 | [3] -0.002 | [4] -0.049 | [5] -0.081 | [6] -0.118 | [7] -0.017 | [8] -0.025 | [9] 0.01 | [10] -0.018 | [11] 0.084 | [12] 0.046 | [13] -0.07 | [14] -0.062 | [15] -0.012 | [16] -0.056 | [17] -0.017 | [18] 0.02 | [19] -0.139 | [20] 0.036

AKR1B1 (UniProt P15121)
inactive: [1] 0.026 | [2] -0.057 | [3] 0.014 | [4] -0.067 | [5] -0.018 | [6] 0.003 | [7] -0.014 | [8] -0.003 | [9] 0.058 | [10] 0.008 | [11] 0.002 | [12] 0.056 | [13] -0.043 | [14] 0.046 | [15] 0.021 | [16] 0 | [17] -0.017 | [18] 0.01 | [19] -0.034 | [20] 0.002

AMPD3 isoform 4 (UniProt Q01432)
inactive: [1] -0.018 | [2] 0.015 | [3] 0.011 | [4] 0.038 | [5] -0.082 | [6] -0.018 | [7] -0.021 | [8] 0.016 | [9] -0.082 | [10] 0.01 | [11] 0.01 | [12] 0.04 | [13] 0.01 | [14] 0.024 | [15] 0.01 | [16] -0.016 | [17] -0.006 | [18] 0.042 | [19] -0.03 | [20] -0.076

Retrieved one by one from the list above (2):
AGK (UniProt Q53H12)
inactive: [1] -0.02 | [2] 0.003 | [3] 0.039 | [4] 0.066 | [5] -0.056 | [6] -0.003 | [7] 0.032 | [8] -0.016 | [9] 0.026 | [10] 0.021 | [11] -0.075 | [12] -0.041 | [13] 0.008 | [14] 0.027 | [15] 0.007 | [16] 0.012 | [17] 0.007 | [18] -0.036 | [19] -0.012 | [20] -0.096

AFG3L2 (UniProt Q9Y4W6)
inactive: [1] -0.018 | [2] -0.002 | [3] 0.011 | [4] 0.05 | [5] -0.059 | [6] 0.007 | [7] 0.007 | [8] -0.015 | [9] -0.065 | [10] 0.021 | [11] -0.053 | [12] -0.055 | [13] 0.018 | [14] 0.019 | [15] 0.016 | [16] 0.001 | [17] -0.004 | [18] 0.024 | [19] -0.023 | [20] -0.157

Later entries.

AK2 isoform 2 (UniProt P54819)
inactive: [1] -0.003 | [2] 0.011 | [3] -0.019 | [4] -0.002 | [5] -0.04 | [6] -0.02 | [7] -0.049 | [8] 0.107 | [9] -0.025 | [10] -0.003 | [11] 0.009 | [12] 0.124 | [13] -0.033 | [14] 0.002 | [15] 0 | [16] -0.003 | [17] -0.017 | [18] 0.014 | [19] -0.034 | [20] -0.011

AHNAK (UniProt Q09666)
inactive: [1] -0.091 | [2] 0.02 | [3] -0.05 | [4] -0.068 | [5] -0.001 | [6] 0.001 | [7] -0.004 | [8] -0.039 | [9] 0.026 | [10] -0.006 | [11] 0.096 | [12] -0.006 | [13] -0.039 | [14] -0.027 | [15] 0.029 | [16] 0.008 | [17] -0.025 | [18] -0.001 | [19] 0.005 | [20] 0.084

AMDHD2 isoform 3 (UniProt Q9Y303)
inactive: [1] -0.018 | [2] -0.022 | [3] -0.01 | [4] -0.043 | [5] 0.071 | [6] -0.032 | [7] 0.001 | [8] -0.014 | [9] 0.016 | [10] -0.02 | [11] 0.013 | [12] -0.033 | [13] 0.026 | [14] -0.018 | [15] -0.055 | [16] -0.061 | [17] 0.009 | [18] 0.022 | [19] -0.054 | [20] -0.043

ALDH1L1 isoform 3 (UniProt O75891)
inactive: [1] 0.01

ALDH16A1 (UniProt Q8IZ83)
inactive: [1] -0.016 | [2] -0.001 | [3] 0.009 | [4] -0.006 | [5] -0.037 | [6] 0.023 | [7] -0.004 | [8] -0.032 | [9] -0.028 | [10] 0 | [11] 0.015 | [12] -0.033 | [13] -0.034 | [14] -0.02 | [15] -0.006 | [16] -0.03 | [17] -0.001 | [18] 0.005 | [19] -0.033 | [20] -0.058

ALG13 (UniProt Q9NP73)
inactive: [1] 0.032 | [2] -0.012 | [3] 0.051 | [4] -0.036 | [5] -0.17 | [6] -0.003 | [7] 0.033 | [8] 0.012 | [9] -0.061 | [10] 0.051 | [11] 0.054 | [12] 0.007 | [13] 0.045 | [14] 0.126 | [15] 0.056 | [16] -0.046 | [17] 0.049 | [18] -0.002 | [19] -0.033 | [20] -0.075
